# Measurements published in PubChem BioAssay AID2685 (National Center for Advancing Translational Sciences (NCATS), 2010).
# The whole screen tested about 320,000 compounds, of which about 2,100 (0.66%) were called active. The inconclusive results got no clear call from the source; some entries with a clear call stand among them for comparison. Calls follow the shape of the dose curve; as a rule, active = well fitted inhibition curve with a large enough effect in the signal ratio, with a control signal flat (not every such curve was filed as active); inconclusive = small, poorly fitted or top-dose-only effect, or effect the other way, or a change in a side signal; inactive = flat fitted curve, though single readings scatter; the % refers to the signal ratio. Potencies beside an inconclusive call are fits to weak or partial responses and may not hold up.
# Experiment: qHTS Assay for Lipid Storage Modulators in Drosophila S3 Cells
# Settings: BODIPY lipid droplet fluorescence, 18-24 h, cells fed with added oleic acid; lipid storage change, negative = inhibition: at 46.1 µM (top of the series) unless noted
# Procedure, shortened: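 Drosophila S3 cells loaded with oleic acid (400 uM, as added) and compounds at several concentrations; lipid droplets imaged by 488-nm laser-scanning cytometry, 500–530 nm intensity and object ratio to cell channel. Percent activity normalized to 20 uM Triacsin C.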
# % is scaled to controls: 0 for no effect and ±100 for the full control effect; potency is read from the fitted curve at half-maximal effect.
SMILES,"lipid storage change, negative = inhibition",Potency
CN(C)S(=O)(=O)c1ccc(N2CCCC2)c(C(=O)Nc2ccc(F)cc2F)c1,inconclusive: -6.94%,–
Cc1nc2ccc(NC(=O)N3CCN(c4ccccn4)CC3)cc2s1,–,"inconclusive: 3.66 µM [activator, full curve]"
Cc1ccc(S(=O)(=O)NC2CCSC2=O)cc1C (configuration not stated),inconclusive: 5.67%,–
Cc1ncoc1C(=O)N1CCCC(C(=O)c2cccc3ccccc23)C1 (configuration not stated),inactive,–
COc1ccc(C(=O)Nc2c(N)nc(SCC(=O)NCC3CCCO3)[nH]c2=O)cc1 (configuration not stated),inconclusive: 1.27%,–
CN1CCN(S(=O)(=O)c2cccc(C(=O)NC3CCCC3)c2)CC1,inconclusive,–
CCCc1c(O)nc(SCCN(CCC)CCC)[nH]c1=O,inconclusive: -32.6%,–
CCC(=O)NC1CC2CCCC(C1)N2Cc1ccc(C)cc1 (configuration not stated),inconclusive: -12%,–
Cc1cccc2cc(C(c3nnnn3Cc3ccccc3)N3CCN(C)CC3)c(=O)[nH]c12 (configuration not stated),inconclusive: 13.5%,–
Cc1c(CC(=O)NC(C)C)c(=O)oc2cc3c(cc12)CCC(C)(C)O3,inconclusive: -59.2%,–
CC1CC(C)CN(C(=O)C(Cc2ccccc2)NC(=O)c2ccccc2)C1 (configuration not stated),inconclusive: 18.3%,–
O=C(O)CCC(=O)Nc1nc(-c2ccccc2)cs1,–,"inconclusive: 0.461 µM [falling, full curve]"
Cc1oc(-c2cc(F)ccc2F)nc1CN1CCN(c2cnccn2)CC1,–,"inconclusive: 3.66 µM [cytotoxic, partial curve]"
NC(=O)C1CCN(C(=O)c2ccc(NC3=NC4CS(=O)(=O)CC4S3)cc2)CC1 (configuration not stated),–,"inconclusive: 0.0291 µM [falling, full curve]"
CCOC(=O)C1=C(CS(=O)(=O)c2ccccc2)NC(=O)NC1c1ccccc1 (configuration not stated),–,"inconclusive: 29.1 µM [activator, single point]"
CC1(C)OC(=O)CC1C(=O)NCc1ccccc1 (configuration not stated),–,active: 1.84 µM
Cc1ccsc1C(=O)OCC(=O)NC1CCCC1,–,active: 0.517 µM
O=C(CCn1c(=O)c2ccccc2n(Cc2cccnc2)c1=O)NCc1ccc2c(c1)OCO2,–,"inconclusive: 8.2 µM [activator, partial curve]"
Cc1cccc(C)c1NC(=O)CN1CCN(C(=O)CN2C(=O)NC3(CCCCC3C)C2=O)CC1 (configuration not stated),inconclusive: 0.0851%,–
Cc1ccsc1/C=N/n1cnc2sc(C)c(C)c2c1=O,inconclusive: 39.9%,–
Cn1c(=O)n(C)c2cc([N+](=O)[O-])c(N3CCN(S(=O)(=O)c4ccc5ccccc5c4)CC3)cc21,inconclusive: 38.3%,–
CCc1nc2ccccc2c(C(=O)Oc2cccc3cccnc23)c1C,inconclusive: -16.1%,–

# Three structures from above, ordered by heavy-atom count, descending:
SMILES,"lipid storage change, negative = inhibition",Potency
Cc1cccc(C)c1NC(=O)CN1CCN(C(=O)CN2C(=O)NC3(CCCCC3C)C2=O)CC1 (configuration not stated),inconclusive: 0.0851%,–
Cc1cccc2cc(C(c3nnnn3Cc3ccccc3)N3CCN(C)CC3)c(=O)[nH]c12 (configuration not stated),inconclusive: 13.5%,–
CN1CCN(S(=O)(=O)c2cccc(C(=O)NC3CCCC3)c2)CC1,inconclusive,–
